Source: the supplement of paper PMC8728848
The list shows a part of the results.

What was measured:
Assay in all cases: glycan array binding signal (z-score within array); higher = stronger binding
Details in all cases: glycan notation: IUPAC condensed, linker removed
[1] = biological target: Man(a1-2)Man(a1-6)[Man(a1-3)]Man(a1-6)[Man(a1-2)Man(a1-2)Man(a1-3)]Man(b1-4)GlcNAc(b1-4)GlcNAc
Method in brief: (§1)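 The Consortium for Functional Glycomics database supplied 3228 glycan arrays, of which those lacking an available protein sequence were dropped. The binding signal, a within-array Z-score, was averaged across arrays of the same protein sequence and across linkers. Negative scores can be read as non-binding.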

[2] = biological target: Man(a1-3)[Man(a1-6)]Man
Method in brief: as §1

[3] = biological target: Man(a1-3)[Man(a1-6)]Man(a1-6)[Man(a1-2)Man(a1-3)]Man(b1-4)GlcNAc(b1-4)GlcNAc
Method in brief: as §1

[4] = biological target: Man(a1-3)[Man(a1-6)]Man(a1-6)[Man(a1-3)]Man
Method in brief: as §1

[5] = biological target: Man(a1-3)[Man(a1-6)]Man(a1-6)[Man(a1-3)]Man(b1-4)GlcNAc(b1-4)GlcNAc
Method in brief: as §1

[6] = biological target: Man(a1-3)[Man(a1-6)]Man(b1-4)GlcNAc(b1-4)GlcNAc
Method in brief: as §1

[7] = biological target: Man(a1-6)Man
Method in brief: as §1

[8] = biological target: Man(b1-4)GlcNAc
Method in brief: as §1

[9] = biological target: Neu5Ac(a2-3)Gal
Method in brief: as §1

[10] = biological target: Neu5Ac(a2-3)Gal(b1-3)GalNAc
Method in brief: as §1

[11] = biological target: Neu5Ac(a2-3)Gal(b1-3)GalNAc(b1-3)Gal(a1-4)Gal(b1-4)Glc
Method in brief: as §1

[12] = biological target: Neu5Ac(a2-3)Gal(b1-3)GalNAc(b1-4)[Neu5Ac(a2-3)]Gal(b1-4)Glc
Method in brief: as §1

[13] = biological target: Neu5Ac(a2-3)Gal(b1-3)GalNAc6S
Method in brief: as §1

[14] = biological target: Neu5Ac(a2-3)Gal(b1-3)GlcNAc
Method in brief: as §1

[15] = biological target: Neu5Ac(a2-3)Gal(b1-3)GlcNAc(b1-2)Man(a1-3)[Neu5Ac(a2-3)Gal(b1-3)GlcNAc(b1-2)Man(a1-6)]Man(b1-4)GlcNAc(b1-4)GlcNAc
Method in brief: as §1

[16] = biological target: Neu5Ac(a2-3)Gal(b1-3)GlcNAc(b1-3)Gal(b1-3)GlcNAc
Method in brief: as §1

[17] = biological target: Neu5Ac(a2-3)Gal(b1-3)GlcNAc(b1-3)Gal(b1-4)GlcNAc
Method in brief: as §1

[18] = biological target: Neu5Ac(a2-3)Gal(b1-3)GlcNAc(b1-3)GalNAc
Method in brief: as §1

[19] = biological target: Neu5Ac(a2-3)Gal(b1-3)GlcNAc6S
Method in brief: as §1

[20] = biological target: Neu5Ac(a2-3)Gal(b1-3)[Fuc(a1-4)]GlcNAc
Method in brief: as §1

[21] = biological target: Neu5Ac(a2-3)Gal(b1-3)[Fuc(a1-4)]GlcNAc(b1-3)Gal(b1-3)[Fuc(a1-4)]GlcNAc
Method in brief: as §1

[22] = biological target: Neu5Ac(a2-3)Gal(b1-3)[Fuc(a1-4)]GlcNAc(b1-3)Gal(b1-4)[Fuc(a1-3)]GlcNAc
Method in brief: as §1

[23] = biological target: Neu5Ac(a2-3)Gal(b1-3)[Neu5Ac(a2-3)Gal(b1-4)]GlcNAc
Method in brief: as §1

[24] = biological target: Neu5Ac(a2-3)Gal(b1-3)[Neu5Ac(a2-6)]GalNAc
Method in brief: as §1

[25] = biological target: Neu5Ac(a2-3)Gal(b1-4)Glc
Method in brief: as §1

[26] = biological target: Neu5Ac(a2-3)Gal(b1-4)GlcNAc
Method in brief: as §1

[27] = biological target: Neu5Ac(a2-3)Gal(b1-4)GlcNAc(b1-2)Man(a1-3)[GlcNAc(b1-2)Man(b1-4)GlcNAc(b1-2)Man(a1-6)]Man(b1-4)GlcNAc(b1-4)GlcNAc
Method in brief: as §1

[28] = biological target: Neu5Ac(a2-3)Gal(b1-4)GlcNAc(b1-2)Man(a1-3)[Neu5Ac(a2-6)Gal(b1-4)GlcNAc(b1-2)Man(a1-6)]Man(b1-4)GlcNAc(b1-4)GlcNAc
Method in brief: as §1

[29] = biological target: Neu5Ac(a2-3)Gal(b1-4)GlcNAc(b1-3)Gal(b1-3)GlcNAc
Method in brief: as §1

[30] = biological target: Neu5Ac(a2-3)Gal(b1-4)GlcNAc(b1-3)Gal(b1-4)GlcNAc
Method in brief: as §1

[31] = biological target: Neu5Ac(a2-3)Gal(b1-4)GlcNAc(b1-3)Gal(b1-4)GlcNAc(b1-3)Gal(b1-4)GlcNAc
Method in brief: as §1

[32] = biological target: Neu5Ac(a2-3)Gal(b1-4)GlcNAc(b1-3)Gal(b1-4)[Fuc(a1-3)]GlcNAc
Method in brief: as §1

[33] = biological target: Neu5Ac(a2-3)Gal(b1-4)GlcNAc(b1-3)GalNAc
Method in brief: as §1

[34] = biological target: Neu5Ac(a2-3)Gal(b1-4)GlcNAc(b1-6)[Gal(b1-3)]GalNAc
Method in brief: as §1

[35] = biological target: Neu5Ac(a2-3)Gal(b1-4)GlcNAc(b1-6)[Neu5Ac(a2-3)Gal(b1-3)]GalNAc
Method in brief: as §1

[36] = biological target: Neu5Ac(a2-3)Gal(b1-4)GlcNAc6S
Method in brief: as §1

[37] = biological target: Neu5Ac(a2-3)Gal(b1-4)[Fuc(a1-3)]GlcNAc
Method in brief: as §1

[38] = biological target: Neu5Ac(a2-3)Gal(b1-4)[Fuc(a1-3)]GlcNAc(b1-3)Gal
Method in brief: as §1

[39] = biological target: Neu5Ac(a2-3)Gal(b1-4)[Fuc(a1-3)]GlcNAc(b1-3)Gal(b1-4)GlcNAc
Method in brief: as §1

[40] = biological target: Neu5Ac(a2-3)Gal(b1-4)[Fuc(a1-3)]GlcNAc(b1-3)Gal(b1-4)[Fuc(a1-3)]GlcNAc(b1-3)Gal(b1-4)[Fuc(a1-3)]GlcNAc
Method in brief: as §1

[41] = biological target: Neu5Ac(a2-3)Gal(b1-4)[Fuc(a1-3)]GlcNAc(b1-3)GalNAc
Method in brief: as §1

[42] = biological target: Neu5Ac(a2-3)Gal(b1-4)[Fuc(a1-3)]GlcNAc(b1-6)[Gal(b1-3)]GalNAc
Method in brief: as §1

[43] = biological target: Neu5Ac(a2-3)Gal(b1-4)[Fuc(a1-3)]GlcNAc(b1-6)[Neu5Ac(a2-3)Gal(b1-3)]GalNAc
Method in brief: as §1

[44] = biological target: Neu5Ac(a2-3)Gal(b1-4)[Fuc(a1-3)]GlcNAc6S
Method in brief: as §1

[45] = biological target: Neu5Ac(a2-3)Gal6S(b1-4)GlcNAc
Method in brief: as §1

B1: Flo10 (Saccharomyces cerevisiae), P36170 (protein)
chain: MPVAARYIFLTGLFLLSVANVALGTTEACLPAGEKKNGMTINFYQYSLKDSSTYSNPSYMAYGYADAEKLGSVSGQTKLSIDYSIPCNGASDTCACSDDDATEYSASQVVPVKRGVKLCSDNTTLSSKTEKRENDDCDQGAAYWSSDLFGFYTTPTNVTVEMTGYFLPPKTGTYTFGFATVDDSAILSVGGNVAFECCKQEQPPITSTDFTINGIKPWNADAPTDIKGSTYMYAGYYYPIKIVYSNAVSWGTLPVSVVLPDGTEVNDDFEGYVFSFDDNATQAHCSVPNPAEHARTCVSSATSSWSSSEVCTECTETESTSYVTPYVTSSSWSSSEVCTECTETESTSTSTPYVTSSSSSSSEVCTECTETESTSYVTPYVSSSTAAANYTSSFSSSSEVCTECTETESTSTSTPYVTSSSWSSSEVCTECTETESTSYVTPYVSSSTAAANYTSSFSSSSEVCTECTETESTSTSTPYVTSSSSSSSEVCTECTETESTSYVTPYVSSSTAAANYTSSFSSSSEVCTECTETESTSTSTPYVTSSSWSSSEVCTECTETESTSYVTPYVSSSTAAANYTSSFSSSSEVCTECTETESTSTSTPYATSSTGTATSFTASTSNTMTSLVQTDTTVSFSLSSTVSEHTNAPTSSVESNASTFISSNKGSVKSYVTSSIHSITPMYPSNQTVTSSSVVSTPITSESSESSASVTILPSTITSEFKPSTMKTKVVSISSSPTNLITSYDTTSKDSTVGSSTSSVSLISSISLPSSYSASSEQIFHSSIVSSNGQALTSFSSTKVSSSESSESHRTSPTTSSESGIKSSGVEIESTSTSSFSFHETSTASTSVQISSQFVTPSSPISTVAPRSTGLNSQTESTNSSKETMSSENSASVMPSSSATSPKTGKVTSDETSSGFSRDRTTVYRMTSETPSTNEQTTLITVSSCESNSCSNTVSSAVVSTATTTINGITTEYTTWCPLSATELTTVSKLESEEKTTLITVTSCESGVCSETASPAIVSTATATVNDVVTVYSTWSPQATNKLAVSSDIENSASKASFVSEAAETKSISRNNNFVPTSGTTSIETHTTTTSNASENSDNVSASEAVSSKSVTNPVLISVSQQPRGTPASSMIGSSTASLEMSSYLGIANHLLTNSGISIFIASLLLAIV
[1]
  glycan array binding signal (z-score): -0.712
[2]
  glycan array binding signal (z-score): -0.794
[3]
  glycan array binding signal (z-score): -0.706
[4]
  glycan array binding signal (z-score): -0.76
[5]
  glycan array binding signal (z-score): 0.35
[6]
  glycan array binding signal (z-score): -1.83
[7]
  glycan array binding signal (z-score): 0.265
[8]
  glycan array binding signal (z-score): -0.435
[9]
  glycan array binding signal (z-score): -0.75
[10]
  glycan array binding signal (z-score): 0.113
[11]
  glycan array binding signal (z-score): -0.274
[12]
  glycan array binding signal (z-score): 0.386
[13]
  glycan array binding signal (z-score): -0.697
[14]
  glycan array binding signal (z-score): 0.095
[15]
  glycan array binding signal (z-score): -0.606
[16]
  glycan array binding signal (z-score): -0.694
[17]
  glycan array binding signal (z-score): -0.081
[18]
  glycan array binding signal (z-score): -0.787
[19]
  glycan array binding signal (z-score): -0.311
[20]
  glycan array binding signal (z-score): -0.582
[21]
  glycan array binding signal (z-score): 0.232
[22]
  glycan array binding signal (z-score): -0.719
[23]
  glycan array binding signal (z-score): -0.644
[24]
  glycan array binding signal (z-score): -0.202
[25]
  glycan array binding signal (z-score): 0.003
[26]
  glycan array binding signal (z-score): -0.187
[27]
  glycan array binding signal (z-score): 0.121
[28]
  glycan array binding signal (z-score): -0.301
[29]
  glycan array binding signal (z-score): -0.613
[30]
  glycan array binding signal (z-score): -0.112
[31]
  glycan array binding signal (z-score): -0.121
[32]
  glycan array binding signal (z-score): -0.587
[33]
  glycan array binding signal (z-score): -0.225
[34]
  glycan array binding signal (z-score): 1.09
[35]
  glycan array binding signal (z-score): -0.788
[36]
  glycan array binding signal (z-score): 0.388
[37]
  glycan array binding signal (z-score): -0.689
[38]
  glycan array binding signal (z-score): -0.499
[39]
  glycan array binding signal (z-score): -0.763
[40]
  glycan array binding signal (z-score): -0.842
[41]
  glycan array binding signal (z-score): -0.323
[42]
  glycan array binding signal (z-score): -0.629
[43]
  glycan array binding signal (z-score): 0.12
[44]
  glycan array binding signal (z-score): -0.767
[45]
  glycan array binding signal (z-score): 1.05
